Results are given in words; binding and its absence hold for the method and conditions named. In cells and extracts the contact can be indirect. Binding calls can cover weak binding; strength is not graded here.
Target: T1, Vitamin D receptor (human (endogenous in K1 cells)) (UniProt P11473)
T1 sequence: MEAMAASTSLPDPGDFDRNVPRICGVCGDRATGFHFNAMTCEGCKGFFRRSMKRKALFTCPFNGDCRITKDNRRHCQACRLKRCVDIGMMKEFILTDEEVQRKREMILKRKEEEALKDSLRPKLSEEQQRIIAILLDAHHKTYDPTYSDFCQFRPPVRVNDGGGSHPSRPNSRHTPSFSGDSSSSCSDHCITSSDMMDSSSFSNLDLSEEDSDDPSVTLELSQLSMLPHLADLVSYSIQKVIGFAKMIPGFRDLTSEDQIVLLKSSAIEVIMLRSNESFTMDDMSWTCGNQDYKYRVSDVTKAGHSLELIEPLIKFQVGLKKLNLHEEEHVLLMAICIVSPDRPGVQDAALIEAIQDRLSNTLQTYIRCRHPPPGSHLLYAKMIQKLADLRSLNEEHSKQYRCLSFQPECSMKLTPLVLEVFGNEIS
Test: co-IP; membrane protein extracts of K1 cells (100 µg) incubated with 2 µg anti-VDR antibody or rabbit IgG overnight at 4°C, protein G plus/protein A agarose beads, washes with PBS, Western blot for VDR, E-cadherin and β-catenin

binding: binds
Substance: E-cadherin (human (endogenous in K1 cells))

From publication PMC8942331
